Here are results for one molecule from paper PMC3364227.

These are yes or no findings as the source states them, for the method shown. In cells and extracts the contact can be indirect.

This experiment addresses T1, DJ-1 (endogenous, mouse liver cell line) (mouse (endogenous in mouse liver cells)) (UniProt Q99LX0).
T1 sequence: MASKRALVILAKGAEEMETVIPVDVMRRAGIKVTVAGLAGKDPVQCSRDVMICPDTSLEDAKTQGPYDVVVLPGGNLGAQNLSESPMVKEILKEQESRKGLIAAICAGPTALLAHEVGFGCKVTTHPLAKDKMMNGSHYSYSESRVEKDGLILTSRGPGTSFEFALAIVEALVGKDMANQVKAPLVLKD
As to the kind of experiment: co-IP; endogenous proteins in extracts of mouse liver cells or SH-SY5Y cells, immunoprecipitated with a rabbit anti-DJ-1 antibody or normal IgG; Western blotting with anti-SREBP-1, anti-SREBP-2 and anti-DJ-1 antibodies. In general terms: In western blotting, separated proteins are transferred to a membrane and probed.

B1: precursor SREBP-1 (sterol regulatory element binding protein 1), mouse liver cells (protein, UniProt Q9WTN3 1-1134)
chain: MDELAFGEAALEQTLAEMCELDTAVLNDIEDMLQLINNQDSDFPGLFDAPYAGGETGDTGPSSPGANSPESFSSASLASSLEAFLGGPKVTPAPLSPPPSAPAALKMYPSVSPFSPGPGIKEEPVPLTILQPAAPQPSPGTLLPPSFPAPPVQLSPAPVLGYSSLPSGFSGTLPGNTQQPPSSLPLAPAPGVLPTPALHTQVQSLASQQPLPASAAPRTNTVTSQVQQVPVVLQPHFIKADSLLLTAVKTDAGATVKTAGISTLAPGTAVQAGPLQTLVSGGTILATVPLVVDTDKLPIHRLAAGSKALGSAQSRGEKRTAHNAIEKRYRSSINDKIVELKDLVVGTEAKLNKSAVLRKAIDYIRFLQHSNQKLKQENLTLRSAHKSKSLKDLVSACGSGGGTDVSMEGMKPEVVETLTPPPSDAGSPSQSSPLSFGSRASSSGGSDSEPDSPAFEDSQVKAQRLPSHSRGMLDRSRLALCVLAFLCLTCNPLASLFGWGILTPSDATGTHRSSGRSMLEAESRDGSNWTQWLLPPLVWLANGLLVLACLALLFVYGEPVTRPHSGPAVHFWRHRKQADLDLARGDFPQAAQQLWLALQALGRPLPTSNLDLACSLLWNLIRHLLQRLWVGRWLAGQAGGLLRDRGLRKDARASARDAAVVYHKLHQLHAMGKYTGGHLAASNLALSALNLAECAGDAISMATLAEIYVAAALRVKTSLPRALHFLTRFFLSSARQACLAQSGSVPLAMQWLCHPVGHRFFVDGDWAVHGAPPESLYSVAGNPVDPLAQVTRLFREHLLERALNCIAQPSPGAADGDREFSDALGYLQLLNSCSDAAGAPACSFSVSSSMAATTGPDPVAKWWASLTAVVIHWLRRDEEAAERLYPLVEHIPQVLQDTERPLPRAALYSFKAARALLDHRKVESSPASLAICEKASGYLRDSLASTPTGSSIDKAMQLLLCDLLLVARTSLWQRQQSPASVQVAHGTSNGPQASALELRGFQHDLSSLRRLAQSFRPAMRRVFLHEATARLMAGASPARTHQLLDRSLRRRAGSSGKGGTTAELEPRPTWREHTEALLLASCYLPPAFLSAPGQRMSMLAEAARTVEKLGDHRLLLDCQQMLLRLGGGTTVTSS
With B1, the binding result was “no binding”.
